Measured values reported in publication PMC6689091.
Results are given in words; binding and its absence hold for the method and conditions named. Binding seen in cells or lysates may run through a third protein. Some entries that bind do so weakly or less than the wild type. For some assays here: Tags and fused reporters may be left off the sequences shown. Values belong to the molecule of their own block, whether it stands above or below them.

The chains behind the UniProt entries cited, without tags or fusion partners.
UniProt O96013: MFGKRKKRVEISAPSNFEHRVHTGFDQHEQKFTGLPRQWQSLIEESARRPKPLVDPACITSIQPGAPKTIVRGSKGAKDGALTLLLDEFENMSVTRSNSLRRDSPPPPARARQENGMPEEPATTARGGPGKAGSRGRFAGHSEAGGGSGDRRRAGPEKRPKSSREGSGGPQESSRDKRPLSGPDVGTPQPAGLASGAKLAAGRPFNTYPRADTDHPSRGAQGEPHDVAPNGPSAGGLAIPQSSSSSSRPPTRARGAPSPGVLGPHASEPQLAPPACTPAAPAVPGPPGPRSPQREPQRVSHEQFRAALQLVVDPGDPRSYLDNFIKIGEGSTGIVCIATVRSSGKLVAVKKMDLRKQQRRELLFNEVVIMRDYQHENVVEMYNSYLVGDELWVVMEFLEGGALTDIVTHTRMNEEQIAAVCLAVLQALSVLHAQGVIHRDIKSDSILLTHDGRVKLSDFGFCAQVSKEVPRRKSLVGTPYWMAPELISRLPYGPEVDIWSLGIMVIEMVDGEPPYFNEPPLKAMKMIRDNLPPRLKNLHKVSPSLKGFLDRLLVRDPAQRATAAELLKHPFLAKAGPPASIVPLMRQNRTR

Key:
[1] = biological target: T1, FLAG-tagged human RELB (human) (UniProt Q01201); test: co-IP; FLAG-RELB immunoprecipitated (ANTI-FLAG M2 affinity gel) from whole-cell lysate of transfected cells; immunoblot for endogenous PAK4; cell line not given
T1 sequence: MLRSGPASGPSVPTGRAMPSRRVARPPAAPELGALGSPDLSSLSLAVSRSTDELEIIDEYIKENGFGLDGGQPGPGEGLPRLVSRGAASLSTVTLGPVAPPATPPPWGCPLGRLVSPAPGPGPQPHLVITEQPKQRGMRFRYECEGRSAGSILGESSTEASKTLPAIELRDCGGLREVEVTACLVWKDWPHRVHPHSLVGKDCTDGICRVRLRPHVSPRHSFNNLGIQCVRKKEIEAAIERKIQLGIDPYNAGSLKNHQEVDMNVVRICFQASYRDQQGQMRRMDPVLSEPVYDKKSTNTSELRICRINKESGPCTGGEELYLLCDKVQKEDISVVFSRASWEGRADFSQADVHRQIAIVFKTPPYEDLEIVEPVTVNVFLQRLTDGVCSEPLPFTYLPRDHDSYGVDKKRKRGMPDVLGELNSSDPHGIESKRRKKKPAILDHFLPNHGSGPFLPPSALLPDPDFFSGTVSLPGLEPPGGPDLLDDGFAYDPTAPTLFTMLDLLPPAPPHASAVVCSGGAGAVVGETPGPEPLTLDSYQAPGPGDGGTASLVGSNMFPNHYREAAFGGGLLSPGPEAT

[2] = biological target: endogenous PAK4 (UniProt O96013); test: co-IP; endogenous PAK4 immunoprecipitated from whole-cell lysate (monoclonal mouse anti-PAK4, protein G-Sepharose; mouse IgG as control); immunoblot for endogenous RELB; cell line not given

binding [1]: binds
Molecule: endogenous PAK4 (from UniProt O96013 1-591)

binding [2]: binds
B1: endogenous RELB (cells of the endogenous PAK4 immunoprecipitation) (protein, UniProt Q01201 1-579)
chain: T1 sequence
